Measured values from the supplement of paper PMC11150407.
About 45 (2%) of roughly 3,000 compounds showed an effect of 50% or more. The list shows a part of the results.

system: MOLM1 and UCSD/AML1 (averaged); experiment: cell viability relative to DMSO control (POC); higher = less growth inhibition; details: 1 µM; 72 h
Protocol: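 Primary viability screen in the 3q26 EVI1-high AML cell lines MOLM1 and UCSD/AML1, compounds at 1 uM for 72 h. ATP CellTiter-Glo read-out given as percent viable over DMSO control (POC), averaged over duplicates. This mapping covers the TimTec NDL-3000 natural derivative library, whose compounds are identified by TimTec catalogue codes (ST...).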

Compound	cell viability [%]
COc1ccc(-c2cc(-c3ccc4c(c3)OCO4)[nH]c(=O)c2C#N)cc1	97.1
COc1ccc(C(=O)NCC(C)c2ccccc2)cc1OC (stereo not drawn)	88.4
COc1cc(CNC2CCCCC2OC)cc(OC)c1OC (stereo not drawn)	102
CCCNC(=O)c1cc(=O)n(CC(=O)Nc2cccc(Br)c2)c2ccccc12	87.2
CNC(=O)c1cc(=O)n(CC(=O)Nc2ccccc2F)c2ccccc12	102
CCCc1ccc(OCCn2c(C)c(C(=O)OCC)c3cc(O)c4ccccc4c32)cc1	91.4
COc1cc(C(=S)N2CCOCC2)cc(OC)c1OC(=O)c1ccccc1Cl	92.5
COc1cccc(/C(C)=N/Nc2nc(SCC(=O)c3ccc4c(c3)OCO4)n[nH]2)c1	97.1
COc1cc(-c2nnc(SCC(=O)N(C)c3ccccc3)o2)cc(OC)c1OC	104
O=C(CCS(=O)(=O)c1ccccc1)N1CCc2ccccc2C1	104
Cc1ccc2c(CN3CCN(Cc4cccc(Cl)c4)CC3)cc(=O)oc2c1	103
COc1cc(C(=O)NO)cc(OC)c1OC	94.2
C=CCOc1ccc(/C=C2/Oc3ccc(C(=O)OC)cc3C2=O)cc1OC	102
CCOC(=O)c1c(NC(=O)c2cc(OC)c(OC)c(OC)c2)sc(C(=O)Nc2cc(C(F)(F)F)ccc2Cl)c1C	104
COc1cc(C(=O)Nc2ccc(Br)c(Cl)c2)cc(OC)c1OC	87
NC(Cc1cccc(F)c1)C(=O)O (stereo not drawn)	112
Cc1ccc(NC(=O)Cn2c(Br)nc3c2c(=O)n(C)c(=O)n3C)cc1	104
CC(=O)OC1C=C(C)c2ccc(O)cc2O1 (stereo not drawn)	102
COc1ccc(NC(=O)CSc2nc3ccccc3c(=O)[nH]2)cc1OC	97.5
COc1ccc2c3c(c(=O)oc2c1OC(C)C(=O)c1ccccc1)CCCC3 (stereo not drawn)	101
COc1cc(C2C(C#N)=C(N)Oc3n[nH]c(-c4ccccc4)c32)cc2c1OCO2 (stereo not drawn)	99.1
CCc1ccc(NC(=O)CSc2nc3c(=O)[nH]cnc3n2-c2ccccc2)cc1	115
COc1cc(C(=O)NCC(C)NC(=O)c2cc(OC)c(OC)c(OC)c2)cc(OC)c1OC (stereo not drawn)	99.3

Looked up above:
COc1cc(C(=O)NCC(C)NC(=O)c2cc(OC)c(OC)c(OC)c2)cc(OC)c1OC (stereo not drawn) – cell viability [%]: 99.3
COc1cc(C2C(C#N)=C(N)Oc3n[nH]c(-c4ccccc4)c32)cc2c1OCO2 (stereo not drawn) – cell viability [%]: 99.1

(listing goes on)

Compound	cell viability [%]
O=C1C(Cl)=C(NC2CCN(Cc3ccccc3)CC2)C(=O)c2ccccc21	103
COC(=O)NCCc1cc(OC)c(OC)cc1NC(=O)c1ccc(OC)c(OC)c1	108
COC(=O)C1Cc2c([nH]c3ccccc23)C(C)N1 (stereo not drawn)	120
Cn1c(=O)c2c(nc(Cl)n2Cc2cccc(Br)c2)n(C)c1=O	93.3
O=C(CSc1nc2ccccc2c(=O)[nH]1)Nc1cccc(Cl)c1	101
O=C(Nc1nc2c(s1)CCCC2)c1ccc2c(c1)OCO2	89.8
CCOC(=O)C(CCCN=C(N)N)NC(=O)c1ccccc1 (stereo not drawn)	101
COc1ccc(C(=O)Oc2cccc(NC(=O)c3ccco3)c2)cc1OC	99.9
O=C(O)CNC(=O)c1ccccc1O	108
COc1cc(CN(C)C(=O)c2cnccn2)cc(OC)c1OC	110
Cn1c(=O)c2c(nc(SCc3ccccn3)n2Cc2c(F)cccc2Cl)n(C)c1=O	105
CCC1C(c2ccccc2)=NNc2nc3c(c(=O)n(C)c(=O)n3C)n21 (stereo not drawn)	91.8
Cc1cc(=O)oc2cc(OC3OC(CO)C(O)C(O)C3O)ccc12 (stereo not drawn)	111
Cc1cc(C)c2c(CN3CCN(C(=O)c4ccco4)CC3)cc(=O)oc2c1	97.8
COc1ccc(/C=C(\C#N)C(=O)OC(C)C)c(OC)c1OC	106
COc1cc(C=O)cc(Br)c1OCc1ccccc1Br	103
O=C(N/N=C/c1cc(N=Nc2cccc3ccccc23)ccc1O)c1ccc2c(c1)OCO2	64.5
O=C(Cn1c(=O)cc(C(=O)NCc2ccccc2)c2ccccc21)Nc1ccc2c(c1)OCCO2	93.4
CCCCCOc1ccc(NC(=O)C(=O)NCc2ccc(OC)cc2)cc1	92.7
Cc1cc(=O)oc2cc(Cl)c(OCc3ccccc3)cc12	102
COc1cc(C=O)cc(OC)c1OC(=O)c1ccco1	109
COc1cc(C2C(C#N)=C(N)Oc3c2c(C)nn3-c2ccccc2)cc([N+](=O)[O-])c1O (stereo not drawn)	89.7
Cc1cc2oc(=O)cc(O)c2cc1C	95.7

In the list so far, these have a halogen.
Compound	cell viability [%]
CCCNC(=O)c1cc(=O)n(CC(=O)Nc2cccc(Br)c2)c2ccccc12	87.2
CNC(=O)c1cc(=O)n(CC(=O)Nc2ccccc2F)c2ccccc12	102
COc1cc(C(=S)N2CCOCC2)cc(OC)c1OC(=O)c1ccccc1Cl	92.5
Cc1ccc2c(CN3CCN(Cc4cccc(Cl)c4)CC3)cc(=O)oc2c1	103
CCOC(=O)c1c(NC(=O)c2cc(OC)c(OC)c(OC)c2)sc(C(=O)Nc2cc(C(F)(F)F)ccc2Cl)c1C	104
COc1cc(C(=O)Nc2ccc(Br)c(Cl)c2)cc(OC)c1OC	87
NC(Cc1cccc(F)c1)C(=O)O (stereo not drawn)	112
Cc1ccc(NC(=O)Cn2c(Br)nc3c2c(=O)n(C)c(=O)n3C)cc1	104
O=C1C(Cl)=C(NC2CCN(Cc3ccccc3)CC2)C(=O)c2ccccc21	103
Cn1c(=O)c2c(nc(Cl)n2Cc2cccc(Br)c2)n(C)c1=O	93.3
O=C(CSc1nc2ccccc2c(=O)[nH]1)Nc1cccc(Cl)c1	101
Cn1c(=O)c2c(nc(SCc3ccccn3)n2Cc2c(F)cccc2Cl)n(C)c1=O	105
COc1cc(C=O)cc(Br)c1OCc1ccccc1Br	103
Cc1cc(=O)oc2cc(Cl)c(OCc3ccccc3)cc12	102

(next part)

Compound	cell viability [%]
COc1cc(C(=O)NCCOc2ccc(C)c(C)c2)cc(OC)c1OC	97.2
CC(=O)c1ccc(NC(=O)C2Cc3ccccc3CN2S(=O)(=O)c2cccs2)cc1 (stereo not drawn)	97.4
O=C(Oc1ccc2oc(-c3ccco3)cc(=O)c2c1)c1cccc(Br)c1	107
O=C(Cn1c(=O)cc(C(=O)N2CCOCC2)c2ccccc21)Nc1ccc(Br)cc1	95.2
COc1ccc(C(=O)NC(Cc2c[nH]c3ccccc23)C(=O)O)cc1 (stereo not drawn)	107
Cc1cccc(-c2cc(=O)c3cc(Cl)c(C)cc3o2)c1	99.5
Cn1c(SCC(=O)Nc2ccccc2F)nc2c(=O)[nH]cnc21	89.2
COc1ccc(C(=O)NCCc2c(C)[nH]c3ccc(OC(F)(F)F)cc23)cc1OC	87.7
COc1cc(C2=NOC(=O)/C2=C\c2ccc(Cl)cc2Cl)cc(OC)c1OC	105
CC(=O)OC1CCC2(C)C(=CCC3C2CCC2(C)C(C(C)O)CCC32)C1 (stereo not drawn)	90.1
O=[N+]([O-])c1ccc(CSc2ncnc3c2ncn3C2OC(CO)C(O)C2O)cc1 (stereo not drawn)	98.5
CCC1CCCCO1 (stereo not drawn)	101
Nc1ncnc2nc(SCc3ccc(Cl)cc3Cl)[nH]c12	98.1
Cc1cc(=O)[nH]c(N2CCN(Cc3ccccc3)CC2)n1	93.2
COCCOC(=O)c1c(C)n(CCCNc2ccc([N+](=O)[O-])cc2Cl)c2ccc(O)cc12	97
CC(C)c1ccc(C2C(C#N)=C(N)Oc3c2oc(CO)cc3=O)cc1 (stereo not drawn)	95.6
CC(=O)OC1CCC2(C)C(CCC3(C)C2C(=O)C=C2C4CC(C)(C(=O)Nc5ccccc5Cl)CCC4(C)CCC23C)C1(C)C (stereo not drawn)	79.8
Cc1ccccc1Nc1nc(Nc2ccccc2C)c2ccccc2n1	81.2
COc1ccc(CCNC(=O)CSc2nc3c(c(=O)n(C)c(=O)n3C)n2Cc2ccccc2F)cc1OC	97
Nc1c(C(=O)N2CCC[C@H]2C(=O)O)sc2nc(-c3cccs3)ccc12	103
CN(C)CCCNc1nc(-c2ccc(Cl)cc2)nc2ccccc12	53.4
COc1ccc(C2c3[nH]c4ccccc4c3CCN2Cc2ccc(Cl)cc2)cc1 (stereo not drawn)	98.6
